The assay has as its target AC8-HA (UniProt P40146). The assay can be described thus: SDS-PAGE and immunoblot of cell lysates; HEK293 cells stably expressing AC8-HA treated with BFA for the indicated times, lysed, 7% acrylamide SDS-PAGE, probed for AC8. For orientation: Immunoblotting shows a protein as a band on a membrane.

Chains of the proteins cited; added tags and fusions are not shown.
UniProt P40146: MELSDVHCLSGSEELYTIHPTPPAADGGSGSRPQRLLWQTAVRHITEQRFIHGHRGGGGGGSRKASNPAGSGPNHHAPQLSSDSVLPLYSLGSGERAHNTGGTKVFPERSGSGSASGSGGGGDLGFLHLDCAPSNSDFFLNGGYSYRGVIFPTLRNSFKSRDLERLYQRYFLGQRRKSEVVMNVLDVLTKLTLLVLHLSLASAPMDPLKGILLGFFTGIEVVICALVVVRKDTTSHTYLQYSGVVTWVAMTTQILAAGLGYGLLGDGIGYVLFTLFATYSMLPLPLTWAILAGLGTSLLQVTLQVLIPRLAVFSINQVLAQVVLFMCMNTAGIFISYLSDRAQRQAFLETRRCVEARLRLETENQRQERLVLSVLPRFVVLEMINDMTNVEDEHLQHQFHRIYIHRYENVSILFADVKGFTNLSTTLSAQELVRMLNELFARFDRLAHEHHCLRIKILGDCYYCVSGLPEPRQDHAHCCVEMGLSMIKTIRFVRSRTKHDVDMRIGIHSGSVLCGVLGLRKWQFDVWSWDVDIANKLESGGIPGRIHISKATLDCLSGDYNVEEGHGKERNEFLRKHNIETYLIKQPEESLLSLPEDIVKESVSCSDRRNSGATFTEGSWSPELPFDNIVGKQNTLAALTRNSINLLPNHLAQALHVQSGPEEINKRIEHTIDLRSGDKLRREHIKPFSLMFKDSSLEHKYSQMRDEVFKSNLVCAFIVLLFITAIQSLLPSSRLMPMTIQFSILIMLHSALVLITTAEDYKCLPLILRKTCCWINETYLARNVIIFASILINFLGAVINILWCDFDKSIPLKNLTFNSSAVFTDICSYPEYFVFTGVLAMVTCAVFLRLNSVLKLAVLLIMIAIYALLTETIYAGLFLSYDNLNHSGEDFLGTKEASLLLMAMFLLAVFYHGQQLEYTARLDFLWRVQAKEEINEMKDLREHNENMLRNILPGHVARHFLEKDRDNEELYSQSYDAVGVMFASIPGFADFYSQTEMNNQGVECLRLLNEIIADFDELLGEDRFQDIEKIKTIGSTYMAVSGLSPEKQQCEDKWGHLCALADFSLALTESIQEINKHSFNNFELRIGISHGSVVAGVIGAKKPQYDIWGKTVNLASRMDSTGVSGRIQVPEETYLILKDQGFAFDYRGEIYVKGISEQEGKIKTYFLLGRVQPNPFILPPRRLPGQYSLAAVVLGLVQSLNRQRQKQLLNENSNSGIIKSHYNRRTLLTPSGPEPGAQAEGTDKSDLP

Here are results for one substance from publication PMC6556161.

No constants are given. Whether binding was seen depends on the method and setting. Some results given as binding are weak or reduced against the parent protein; the word gives no strength.

As to “AC8-HA (from UniProt P40146 1-1248) (enzyme)”, the binding entry is listed as “binds”.
